Laboratory results reported in patent publication US20140080772A1, “TREATMENTS FOR MELANOMA” (The Board of Regents of the University of Texas System, priority 2012, published 2014).
For at least one compound, name, drawing or mass did not settle the structure.

System: BRAF V600E mutant and BRAF V600E wild-type melanomas
Assay: Viability of different melanomas in culture after Bafetinib
Type: cell-based, human
Conditions: 9 melanomas in culture; doses 10 mM to 0.1 nM

Cc1ccc(NC(=O)c2ccc(CN3CC[C@H](N(C)C)C3)c(C(F)(F)F)c2)cc1Nc1nccc(-c2cncnc2)n1 [Bafetinib, bafetinib]
sensitivity by IC50 comparison, BRAF V600E mutant vs wild-type melanomas: more sensitive
